Results from article doi:10.1101/2020.01.22.915017.
No constants are given. Whether binding was seen depends on the method and setting. Binding can be weak; no strength is given.

Molecular target: MHC-II molecule I-A^b (mouse (endogenous in BMDCs))
Assay: flow cytometry on cells

ASFEAQGALANIAVDKA [Eα_(52-68) peptide] was tested, and the binding was “binds”.
